Test results as given in PMC13140519.
The exact form of at least one protein or probe is not confirmed.

test system: MBP-TaBZR1 (Triticum aestivum); test: EMSA; conditions: 100 ng protein, LightShift Chemiluminescent EMSA kit binding buffer, 20 min, pH and temperature not stated, recombinant protein, protein details: MBP

Binding result, binds:
GGGTGGCGTGTCGCGGCTGTATTGCGTGCACAACTCGGGTGGCGTGTCGCGGCTGTATTGCGTGCACAACTC (double strand) [TaATG8g-2A-Probe]
AGAATTCATATGAACATTGTCGTGTGCAGAGTTTAGTGCATGTGAATGTTAGAATTCATATGAACATTGTCGTGTGCAGAGTTTAGTGCATGTGAATGTT (double strand) [TaATG8g-2D-Probe]
GGCGACCGTGGGCACGTGACTGGGAGGGCGACCGTGGGCACGTGACTGGGAG (double strand) [TaATG8g-2B-Probe]
